Results: paper PMC5418573
No constants are given. Whether binding was seen depends on the method and setting. For part of these data: Binding can be weak; no strength is given. For part of these data: Sequences can lack the tags named with a protein. For part of these data: In cells and extracts the contact can be indirect. Values belong to the molecule of their own block, whether it stands above or below them.

Amino acid sequences for entries named in this document (tags omitted). A change or cut given only in a name is not applied to a line headed by its entry.
UniProt Q980X5: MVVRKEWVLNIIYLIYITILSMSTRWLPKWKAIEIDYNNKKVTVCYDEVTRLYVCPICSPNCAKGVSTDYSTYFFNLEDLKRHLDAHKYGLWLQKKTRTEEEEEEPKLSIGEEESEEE

Experiments:
[1] = target: T1, recombinant PolB1 of Sulfolobus solfataricus (Sulfolobus solfataricus) (UniProt P26811); experiment: SEC; purified PBP1, PBP2 and PolB1 and combinations, 10 min at room temperature, Superdex 200 HR 10/30 in 20 mM Tris pH 8, 300 mM NaCl; fractions on SDS-PAGE; both purified
T1 sequence: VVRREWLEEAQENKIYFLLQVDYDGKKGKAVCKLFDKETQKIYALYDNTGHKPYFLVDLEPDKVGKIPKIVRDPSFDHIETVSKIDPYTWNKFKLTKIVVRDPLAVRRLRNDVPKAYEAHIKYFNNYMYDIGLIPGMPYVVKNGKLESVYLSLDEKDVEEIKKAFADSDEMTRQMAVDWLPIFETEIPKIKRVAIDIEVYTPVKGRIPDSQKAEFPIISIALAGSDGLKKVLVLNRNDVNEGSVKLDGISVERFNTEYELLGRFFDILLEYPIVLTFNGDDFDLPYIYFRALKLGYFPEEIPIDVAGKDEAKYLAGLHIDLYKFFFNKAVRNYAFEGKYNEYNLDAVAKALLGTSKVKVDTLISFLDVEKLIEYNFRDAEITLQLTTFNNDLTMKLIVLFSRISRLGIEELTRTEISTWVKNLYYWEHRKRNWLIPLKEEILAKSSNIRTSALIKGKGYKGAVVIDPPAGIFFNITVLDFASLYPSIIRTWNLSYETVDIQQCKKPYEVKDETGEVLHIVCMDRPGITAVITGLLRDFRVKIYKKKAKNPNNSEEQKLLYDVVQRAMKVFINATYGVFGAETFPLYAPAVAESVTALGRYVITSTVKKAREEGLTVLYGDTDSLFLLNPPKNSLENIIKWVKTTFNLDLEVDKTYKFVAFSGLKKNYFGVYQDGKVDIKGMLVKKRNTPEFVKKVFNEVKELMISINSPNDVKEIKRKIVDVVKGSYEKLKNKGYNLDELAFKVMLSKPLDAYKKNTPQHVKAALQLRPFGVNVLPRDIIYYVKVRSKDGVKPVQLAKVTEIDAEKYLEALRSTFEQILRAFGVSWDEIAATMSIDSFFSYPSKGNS

[2] = target: T1, recombinant PolB1 of Sulfolobus solfataricus (Sulfolobus solfataricus); experiment: cross-linking; 57 μM holoenzyme complex with 0.625 mM BS3 in 10 mM HEPES pH 7.5, 150 mM NaCl, room temperature 30 min; Ni-NTA under guanidine, SDS-PAGE bands analysed by mass spectrometry and western blotting; both purified
[3] = target: T2, PolB1 of Sulfolobus solfataricus, endogenous (Sulfolobus solfataricus (endogenous in Sso cells)) (UniProt P26811); experiment: co-IP; 100 μg Sso cell extract with anti-PolB1, PBP1 or PBP2 sera, nProtein A Sepharose, buffer C (20 mM Tris pH 7.5, 150 mM NaCl, 5 mM MgCl2, 10% glycerol, 1 mM DTT), room temperature; western blotting
T2 sequence: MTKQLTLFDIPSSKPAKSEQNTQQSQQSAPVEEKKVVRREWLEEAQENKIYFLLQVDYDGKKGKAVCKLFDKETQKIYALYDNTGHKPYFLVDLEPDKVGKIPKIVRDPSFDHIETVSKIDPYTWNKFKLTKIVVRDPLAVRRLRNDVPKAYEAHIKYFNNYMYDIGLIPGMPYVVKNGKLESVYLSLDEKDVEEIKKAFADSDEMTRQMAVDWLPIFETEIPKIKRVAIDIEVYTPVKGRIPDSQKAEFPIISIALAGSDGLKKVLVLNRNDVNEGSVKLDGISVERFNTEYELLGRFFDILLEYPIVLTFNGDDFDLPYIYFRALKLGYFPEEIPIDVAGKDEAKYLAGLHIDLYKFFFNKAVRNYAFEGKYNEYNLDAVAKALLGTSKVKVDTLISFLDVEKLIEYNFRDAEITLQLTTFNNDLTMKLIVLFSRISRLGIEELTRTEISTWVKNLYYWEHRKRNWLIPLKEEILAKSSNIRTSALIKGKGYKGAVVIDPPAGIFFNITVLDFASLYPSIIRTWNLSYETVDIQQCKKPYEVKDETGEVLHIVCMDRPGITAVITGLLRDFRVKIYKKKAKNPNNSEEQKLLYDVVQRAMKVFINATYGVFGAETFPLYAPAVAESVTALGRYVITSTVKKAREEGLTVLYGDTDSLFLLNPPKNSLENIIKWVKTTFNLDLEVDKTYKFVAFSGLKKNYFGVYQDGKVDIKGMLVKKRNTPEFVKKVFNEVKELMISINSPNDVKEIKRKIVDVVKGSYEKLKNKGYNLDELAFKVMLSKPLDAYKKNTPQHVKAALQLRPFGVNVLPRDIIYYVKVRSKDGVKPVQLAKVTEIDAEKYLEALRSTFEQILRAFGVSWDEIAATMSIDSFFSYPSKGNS

[4] = target: T2, PolB1 of Sulfolobus solfataricus, endogenous (Sulfolobus solfataricus (endogenous in Sso cells)); experiment: SEC; Sso whole-cell extract treated with Benzonase and ethidium bromide, Superdex 200 HR 10/30 in 10 mM Tris pH 8.0, 150 mM NaCl; fractions western blotted; compared with recombinant proteins and holoenzyme
[5] = target: T1, recombinant PolB1 of Sulfolobus solfataricus (Sulfolobus solfataricus); experiment: negative-stain electron microscopy; PolB1:PBP1-ΔC:PBP2 with a primer–template DNA, gel filtered, 10 μg/ml, uranyl formate stain; 3D reconstruction at 20.2 Å compared with apo PolB1; both purified
[6] = target: T3, MBP-tagged PolB1 thumb domain (residues 716–882) (Sulfolobus solfataricus) (UniProt P26811); experiment: pull-down; MBP fusion protein on Amylose Resin beads with target protein in buffer A (10 mM HEPES pH 7.5, 100 mM NaCl, 1 mM DTT), room temperature 30 min; Coomassie or silver staining; both purified
T3 sequence: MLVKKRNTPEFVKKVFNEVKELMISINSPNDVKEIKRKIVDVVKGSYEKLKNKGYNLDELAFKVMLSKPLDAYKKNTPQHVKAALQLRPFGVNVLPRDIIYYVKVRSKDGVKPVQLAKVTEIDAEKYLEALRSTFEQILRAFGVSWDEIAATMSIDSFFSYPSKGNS

[7] = target: GST-PBP1 (Sulfolobus solfataricus) (UniProt Q980X5); experiment: pull-down; GST-fusion protein on glutathione sepharose (~10 μg) and 10 μg of target in 100 μl TBST (10 mM Tris pH 8, 150 mM NaCl, 0.1% Tween 20), room temperature 30 min; Coomassie staining or western blotting; both purified
[8] = target: GST-PBP2 (Sulfolobus solfataricus); experiment: as above
[9] = target: PBP2 of Sulfolobus solfataricus (SSO6202), endogenous (Sulfolobus solfataricus (endogenous in Sso cells)); experiment: co-IP; 100 μg Sso cell extract with anti-PolB1, PBP1 or PBP2 sera, nProtein A Sepharose, buffer C (20 mM Tris pH 7.5, 150 mM NaCl, 5 mM MgCl2, 10% glycerol, 1 mM DTT), room temperature; western blotting
[10] = target: PBP1 of Sulfolobus solfataricus (SSO0150), endogenous (Sulfolobus solfataricus (endogenous in Sso cells)) (UniProt Q980X5); experiment: as above

Molecule: recombinant PBP1 of Sulfolobus solfataricus (SSO0150) (from UniProt Q980X5)
binding [1]: binds | binding [2]: binds

Molecule: PBP2 of Sulfolobus solfataricus (SSO6202), endogenous
binding [3]: binds | binding [4]: binds

Molecule: PBP1ΔC, PBP1 C-terminal tail deletion mutant (from UniProt Q980X5) (domain or fragment)
binding [5]: binds

B1: Y family lesion bypass DNA polymerase, Dpo4 (enzyme, UniProt Q97W02 1-352)
chain: MIVLFVDFDYFYAQVEEVLNPSLKGKPVVVCVFSGRFEDSGAVATANYEARKFGVKAGIPIVEAKKILPNAVYLPMRKEVYQQVSSRIMNLLREYSEKIEIASIDEAYLDISDKVRDYREAYNLGLEIKNKILEKEKITVTVGISKNKVFAKIAADMAKPNGIKVIDDEEVKRLIRELDIADVPGIGNITAEKLKKLGINKLVDTLSIEFDKLKGMIGEAKAKYLISLARDEYNEPIRTRVRKSIGRIVTMKRNSRNLEEIKPYLFRAIEESYYKLDKRIPKAIHVVAVTEDLDIVSRGRTFPHGISKETAYSESVKLLQKILEEDERKIRRIGVRFSKFIEAIGLDKFFDT
binding [7]: no binding (tested: 10 μg of target in 100 μl) | binding [8]: no binding (tested: 10 μg of target in 100 μl)

B2: PolB1 of Sulfolobus solfataricus, endogenous (enzyme, UniProt P26811 1-882)
chain: T2 sequence
binding [9]: binds | binding [10]: binds

The next lines start with the values.

binding [3]: binds | binding [4]: binds
Molecule: PBP1 of Sulfolobus solfataricus (SSO0150), endogenous (from UniProt Q980X5)

binding [1]: binds | binding [5]: binds | binding [6]: binds | binding [2]: binds
Molecule: recombinant PBP2 of Sulfolobus solfataricus (SSO6202)
